# Out of some 400,000 compounds screened, about 5,500 (1.4%) were called active. This list was built around the results that the source calls inconclusive (neither active nor inactive); the mix of calls is not that of the screen. The call rests on the fitted dose curve; in most records, active means well fitted cell-killing curve with a large enough effect; inconclusive means small, poorly fitted or top-dose-only effect, or effect the other way; inactive means flat fitted curve, though single readings scatter. Where the call is inconclusive, the potency comes from a doubtful curve fit.
# Experiment: qHTS assay for MDR1-selective chemotherapeutics: Primary screen using the parental adenocarcinoma cell KB-3-1; further: nearly all actives have a fitted effect of over 60% in size
# Conditions: KB-3-1 viability, CellTiter-Glo ATP luminescence, 72 h; activity change, negative = cytotoxic: at 46.1 µM (top of the series)
# In short: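 KB-3-1 cells, DMEM (no phenol red) + 10% FBS; compound by pin transfer, 72 h, 37 °C. Readout: CellTiter-Glo luminescence after 10 min. Data normalized, curve-fitted.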
# On the % scale 0 is the no-effect control and ±100 the full control effect; potency means the concentration at half of the fitted maximal effect.
SMILES,Potency,"activity change, negative = cytotoxic"
CCN1C(=O)C(=O)c2cc(C)ccc21,"inconclusive: 20.6 µM [cytotoxic, single point]",–
COc1ccc(/C=N/Nc2cc(C)nc(N)n2)cc1,"inconclusive: 16.4 µM [rising, partial curve]",–
OCC[C@@H]1C[C@H](O)[C@@H](O)[C@@]2(Cc3ccccc3O2)O1,"inconclusive: 13 µM [rising, partial curve, poor fit]",–
COc1cc(/C=C/C(=O)Nc2cc(C(F)(F)F)ccc2Cl)cc(OC)c1OC,"inconclusive: 29.1 µM [cytotoxic, single point]",–
O=C1C(=O)N(CCS(=O)(=O)c2ccccc2)c2ccc(Cl)cc21,active: 16.4 µM,–
O=C(C1CCN(S(=O)(=O)c2ccc(Br)s2)CC1)N1CCc2ccccc21,"inconclusive: 29.1 µM [cytotoxic, single point]",–
C=C(C)COc1ccc(-c2n[nH]c(C)c2-c2ccc(Br)cc2)c(O)c1,"inconclusive: 29.1 µM [cytotoxic, single point]",–
Cc1ccnc(NC(=S)N2CCN(c3ccc(F)cc3)CC2)c1,–,inactive: 0%
COCc1cc(C)nc(SCC(=O)Nc2nc(C)cs2)c1C#N,"inconclusive: 2.06 µM [rising, full curve, poor fit]",–
CCn1cc(C(=O)N2CCN(c3cccc(Cl)c3)CC2)c(=O)c2cc(S(=O)(=O)N3CCCCC3)ccc21,"inconclusive: 16.4 µM [rising, single point]",–
N#CC1=C(SCC(N)=O)NC2=C(C(=O)c3ccccc32)C1c1ccc(Cl)cc1 (centres undefined),"inconclusive: 29.1 µM [cytotoxic, single point]",–
Cc1ccc(C)c(N2CCN(C3CCCCC3NS(=O)(=O)c3ccccc3)CC2)c1 (centres undefined),active: 16.4 µM,–
O=C1NN=C2CCCCCC12 (centres undefined),–,inactive: -14.1%
Cc1ccc2nc(-c3ccc(O)cc3)c(Nc3ccc4c(c3)OCCO4)n2c1,"inconclusive: 29.1 µM [cytotoxic, single point]",–
Cc1c(C(=O)N2c3ccccc3Sc3ccccc32)cccc1[N+](=O)[O-],"inconclusive: 18.4 µM [cytotoxic, single point]",–
COc1ccc(-c2cnc3c(NC=O)cc(-c4ccc(C(=O)N5CCOCC5)cc4)cn23)cc1OC,"inconclusive: 18.4 µM [cytotoxic, single point]",–
Cc1cccc(C=Nc2ccccc2C(N)=O)c1,active: 23.1 µM,–
CN(c1ccccc1)S(=O)(=O)c1cccc(NC(=O)CN2C(=O)NC3(CCCCC3)C2=O)c1,–,inactive: -18.9%
COc1ccccc1N1CCN(C(c2ccccc2Cl)c2nnnn2C(C)(C)C)CC1 (centres undefined),"inconclusive: 29.1 µM [cytotoxic, single point]",–
COC(=O)c1ccccc1NC(=O)Cn1c(=O)n(Cc2ccc(C(=O)NCc3ccc4c(c3)OCO4)cc2)c(=O)c2ccccc21,–,inactive: -6.46%
CCC1CCCCN1CCCNC(=O)c1cc2c(Cl)nc3ccccc3c2s1 (centres undefined),"inconclusive: 18.4 µM [cytotoxic, single point]",–
Cc1ccc(C)n1-c1nnc(N2CCCC(C(=O)Nc3ccc(C(C)C)cc3)C2)s1 (centres undefined),–,inactive: -25.8%

SMILES,Potency,"activity change, negative = cytotoxic"
Cc1ccc(-n2c(COc3ccccc3)n[nH]c2=S)cc1,–,inactive: 11%
CC(=O)n1cc(C=O)c2ccccc21,"inconclusive: 25.9 µM [rising, partial curve, poor fit]",–
CCOC(=O)c1c(C)oc2ncnc(Nc3ccc(OCC)cc3)c12,–,inactive: 1.37%
Cc1ccc(C)c(N2C(=O)N(Cc3cc(=O)n4ccccc4n3)c3ccccc3S2(=O)=O)c1,"inconclusive: 29.1 µM [cytotoxic, single point]",–
COc1ccc2cc(N3CCCC3=O)ccc2c1,–,inactive: 5.62%
Cc1ccc(-n2nc3c(c2NC(=O)/C=C\c2ccc4c(c2)OCO4)CSC3)cc1,–,inconclusive: 18.5%
Cc1ccc(CNC(=O)c2ccc3c(c2)nc(C)n3-c2cc(C)cc(C)c2)cc1,–,inactive: -2.1%
CCOC(=O)C1=CC[C@@H](c2ccccc2)N(S(=O)(=O)c2ccc(C)cc2)[C@H]1C=C(C)C,"inconclusive: 29.1 µM [cytotoxic, single point]",–
NNc1nnc(-c2ccccc2)c(-c2ccccc2)n1,"inconclusive: 20.6 µM [cytotoxic, partial curve]",–
CCCCC(=O)/C=C/n1c(=S)oc2ccccc21,"inconclusive: 23.1 µM [cytotoxic, single point]",–
COc1ccc(N2CCN(S(=O)(=O)c3ccc4c(c3)NC(=O)CS4)CC2)cc1,"inconclusive: 23.1 µM [cytotoxic, single point]",–
COc1ccc(S(=O)(=O)NCC(c2ccco2)N2CCc3ccccc3C2)cc1 (centres undefined),"inconclusive: 29.1 µM [cytotoxic, single point]",–
c1ccc(CCCNc2ncnc3nc[nH]c23)cc1,"inconclusive: 0.146 µM [cytotoxic, full curve, poor fit]",–
COc1ccc(-c2cc(CNc3nc(NC(C)C)nc4cc(-c5ccccc5)sc34)on2)cc1,"inconclusive: 18.4 µM [cytotoxic, single point]",–
CCN1CCN(c2c(S(=O)(=O)c3ccc(C)c(C)c3)cnc3cc(OC)c(OC)cc23)CC1,"inconclusive: 23.1 µM [cytotoxic, single point]",–
CCCCOC(=O)c1c(C)oc2ccc(NS(=O)(=O)c3ccc4c5c(cccc35)C(=O)N4)cc12,"inconclusive: 29.1 µM [cytotoxic, single point]",–
FC(F)(F)c1ccc(Cl)c(NC(=S)N/N=C/c2ccccc2Cl)c1,–,inactive: 1.82%
O=C(COC(=O)c1nc(Cl)c(Cl)c(Cl)c1Cl)c1ccc[nH]1,"inconclusive: 20.6 µM [cytotoxic, single point]",–
Cc1ccc(-c2nc(-c3ccncc3)no2)c(Cl)c1,–,inactive: -0.615%
CCCCN(CC)CCCNC(=O)c1cc2c(=O)n(C)c3ccccc3c2n1C,active: 16.4 µM,–
CCCCCCCCCCOC(=O)Cn1c(COc2ccccc2OC)[n+](C)c2ccccc21,"inconclusive: 29.1 µM [cytotoxic, partial curve, poor fit]",–
CCCCSc1ncnc2c1c(-c1ccccc1)cn2-c1cccc(F)c1,–,inactive: 0%

# Reprinted from the listing, two compounds:
SMILES,Potency,"activity change, negative = cytotoxic"
COc1ccc(N2CCN(S(=O)(=O)c3ccc4c(c3)NC(=O)CS4)CC2)cc1,"inconclusive: 23.1 µM [cytotoxic, single point]",–
COc1ccc(S(=O)(=O)NCC(c2ccco2)N2CCc3ccccc3C2)cc1 (centres undefined),"inconclusive: 29.1 µM [cytotoxic, single point]",–

# Source: PubChem BioAssay AID1347075 (National Center for Advancing Translational Sciences (NCATS), 2019)
